From PMC10074118
No constants are given. Whether binding was seen depends on the method and setting. In cells and extracts the contact can be indirect. Some binding calls cover weakened binding; strength is not graded here. For some of these results: Tags and fused reporters may be left off the sequences shown.

T1: HA-tagged BBS2 (UniProt Q9BXC9)
T1 sequence: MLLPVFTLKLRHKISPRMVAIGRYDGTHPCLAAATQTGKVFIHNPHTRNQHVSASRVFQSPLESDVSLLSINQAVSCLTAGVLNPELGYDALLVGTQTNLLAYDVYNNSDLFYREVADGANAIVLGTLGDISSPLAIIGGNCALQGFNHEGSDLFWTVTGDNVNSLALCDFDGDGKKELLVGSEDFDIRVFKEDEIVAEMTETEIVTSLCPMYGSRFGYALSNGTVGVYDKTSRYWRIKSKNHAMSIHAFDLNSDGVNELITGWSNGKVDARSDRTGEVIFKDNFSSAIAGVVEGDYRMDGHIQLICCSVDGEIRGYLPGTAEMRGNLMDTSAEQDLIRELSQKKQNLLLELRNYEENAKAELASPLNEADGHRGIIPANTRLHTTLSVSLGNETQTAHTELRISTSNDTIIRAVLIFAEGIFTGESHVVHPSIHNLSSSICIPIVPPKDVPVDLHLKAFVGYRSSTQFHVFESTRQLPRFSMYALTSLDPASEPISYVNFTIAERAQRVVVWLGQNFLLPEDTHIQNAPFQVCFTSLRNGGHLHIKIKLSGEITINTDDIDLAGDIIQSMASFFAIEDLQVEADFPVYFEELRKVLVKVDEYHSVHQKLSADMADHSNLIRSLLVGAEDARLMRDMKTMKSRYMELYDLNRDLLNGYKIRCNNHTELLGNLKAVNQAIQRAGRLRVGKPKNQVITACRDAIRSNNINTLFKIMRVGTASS

T2: HA-tagged BBS4 (UniProt Q96RK4)
T2 sequence: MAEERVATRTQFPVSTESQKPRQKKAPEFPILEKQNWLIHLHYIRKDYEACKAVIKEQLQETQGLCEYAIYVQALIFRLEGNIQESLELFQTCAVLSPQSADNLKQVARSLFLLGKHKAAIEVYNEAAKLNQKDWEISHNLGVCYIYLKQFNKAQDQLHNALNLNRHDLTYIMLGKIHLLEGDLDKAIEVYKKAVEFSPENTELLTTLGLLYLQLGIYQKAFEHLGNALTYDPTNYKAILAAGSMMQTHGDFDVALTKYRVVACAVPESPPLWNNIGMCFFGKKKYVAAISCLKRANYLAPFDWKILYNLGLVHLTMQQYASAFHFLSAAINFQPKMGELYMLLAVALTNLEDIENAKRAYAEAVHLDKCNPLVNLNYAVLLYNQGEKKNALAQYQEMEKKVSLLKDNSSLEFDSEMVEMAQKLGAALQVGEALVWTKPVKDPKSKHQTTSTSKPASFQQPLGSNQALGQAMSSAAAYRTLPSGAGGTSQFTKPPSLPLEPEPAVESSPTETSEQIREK

T3: HA-tagged BBS1 (UniProt Q8NFJ9)
T3 sequence: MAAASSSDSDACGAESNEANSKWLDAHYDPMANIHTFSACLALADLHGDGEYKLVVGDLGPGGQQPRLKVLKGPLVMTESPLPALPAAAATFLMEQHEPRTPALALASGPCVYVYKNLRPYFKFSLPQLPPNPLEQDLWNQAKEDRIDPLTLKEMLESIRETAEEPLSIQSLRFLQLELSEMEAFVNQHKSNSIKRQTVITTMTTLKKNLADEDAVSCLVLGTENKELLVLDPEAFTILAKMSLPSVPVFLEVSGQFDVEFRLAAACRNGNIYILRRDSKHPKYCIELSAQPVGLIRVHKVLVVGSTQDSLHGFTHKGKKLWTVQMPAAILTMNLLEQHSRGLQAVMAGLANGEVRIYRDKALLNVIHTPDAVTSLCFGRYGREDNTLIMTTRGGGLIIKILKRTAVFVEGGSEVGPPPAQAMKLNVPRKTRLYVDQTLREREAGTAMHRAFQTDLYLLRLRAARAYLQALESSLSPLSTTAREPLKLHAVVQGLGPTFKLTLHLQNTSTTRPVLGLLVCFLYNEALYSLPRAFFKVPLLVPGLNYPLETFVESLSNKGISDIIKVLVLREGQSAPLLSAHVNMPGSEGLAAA

T4: HA-tagged BBS7 (UniProt Q8IWZ6)
T4 sequence: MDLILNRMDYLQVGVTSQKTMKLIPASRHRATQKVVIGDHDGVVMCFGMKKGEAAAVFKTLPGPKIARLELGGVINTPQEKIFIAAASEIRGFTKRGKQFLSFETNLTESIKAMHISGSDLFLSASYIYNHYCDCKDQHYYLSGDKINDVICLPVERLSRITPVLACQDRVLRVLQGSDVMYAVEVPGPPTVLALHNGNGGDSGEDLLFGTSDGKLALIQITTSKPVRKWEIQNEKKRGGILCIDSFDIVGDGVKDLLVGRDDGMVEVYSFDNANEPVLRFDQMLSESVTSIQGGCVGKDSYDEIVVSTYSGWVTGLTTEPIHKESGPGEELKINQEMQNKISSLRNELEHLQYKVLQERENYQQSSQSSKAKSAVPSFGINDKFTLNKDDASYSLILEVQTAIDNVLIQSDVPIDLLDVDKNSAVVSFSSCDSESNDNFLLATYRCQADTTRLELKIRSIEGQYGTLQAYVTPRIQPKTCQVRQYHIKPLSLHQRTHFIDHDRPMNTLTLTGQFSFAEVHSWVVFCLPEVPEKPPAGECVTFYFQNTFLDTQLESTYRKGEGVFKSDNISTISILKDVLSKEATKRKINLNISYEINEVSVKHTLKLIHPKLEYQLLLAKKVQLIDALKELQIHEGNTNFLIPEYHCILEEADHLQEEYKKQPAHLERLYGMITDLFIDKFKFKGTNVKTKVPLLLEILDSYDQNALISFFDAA

T5: endogenous PJA2 (human (endogenous in HEK293)) (UniProt O43164)
T5 sequence: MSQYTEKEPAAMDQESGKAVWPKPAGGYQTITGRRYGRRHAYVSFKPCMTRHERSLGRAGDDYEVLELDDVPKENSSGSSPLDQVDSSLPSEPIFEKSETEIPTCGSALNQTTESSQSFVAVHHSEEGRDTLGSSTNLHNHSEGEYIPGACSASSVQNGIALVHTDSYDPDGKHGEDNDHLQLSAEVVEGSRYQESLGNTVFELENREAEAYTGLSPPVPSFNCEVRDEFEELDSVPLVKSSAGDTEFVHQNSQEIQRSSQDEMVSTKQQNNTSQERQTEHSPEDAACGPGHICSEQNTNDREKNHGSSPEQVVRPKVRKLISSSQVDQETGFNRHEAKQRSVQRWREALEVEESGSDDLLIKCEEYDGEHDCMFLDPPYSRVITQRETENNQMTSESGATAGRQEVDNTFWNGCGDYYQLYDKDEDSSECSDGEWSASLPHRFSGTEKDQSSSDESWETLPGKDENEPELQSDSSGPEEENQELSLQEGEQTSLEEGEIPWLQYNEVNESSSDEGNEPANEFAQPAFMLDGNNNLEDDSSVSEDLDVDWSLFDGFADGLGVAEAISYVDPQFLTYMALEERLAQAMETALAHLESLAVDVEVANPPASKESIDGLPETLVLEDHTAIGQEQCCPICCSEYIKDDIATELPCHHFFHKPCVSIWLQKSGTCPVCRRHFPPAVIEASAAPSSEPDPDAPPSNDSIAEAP


Columns and labels:
HA-tagged BBS2 = target: T1, HA-tagged BBS2; experiment: co-IP; HEK293 cells transiently co-transfected with flag-PJA2 (wild type or Δ550-570) and HA-tagged BBS vectors; lysis in 150 mM NaCl, 50 mM Tris-HCl pH 7.5, 1 mM EDTA, 0.5% NP40; immunoprecipitation overnight with anti-HA (or anti-flag); immunoblot for HA and flag
HA-tagged BBS4 = target: T2, HA-tagged BBS4; experiment: as above
HA-tagged BBS1 = target: T3, HA-tagged BBS1; experiment: as above
HA-tagged BBS7 = target: T4, HA-tagged BBS7; experiment: as above
[1] = target: T5, endogenous PJA2 (human (endogenous in HEK293)); experiment: co-IP; endogenous proteins; HEK293 cell lysates immunoprecipitated with anti-PJA2 or control IgG; immunoblot for PJA2 and BBS2

Binder	binding (HA-tagged BBS2)	binding (HA-tagged BBS4)	binding (HA-tagged BBS1)	binding (HA-tagged BBS7)	binding [1]
flag-PJA2 (wild type) (enzyme, UniProt O43164 1-708) MSQYTEKEPAAMDQESGKAVWPKPAGGYQTITGRRYGRRHAYVSFKPCMTRHERSLGRAGDDYEVLELDDVPKENSSGSSPLDQVDSSLPSEPIFEKSETEIPTCGSALNQTTESSQSFVAVHHSEEGRDTLGSSTNLHNHSEGEYIPGACSASSVQNGIALVHTDSYDPDGKHGEDNDHLQLSAEVVEGSRYQESLGNTVFELENREAEAYTGLSPPVPSFNCEVRDEFEELDSVPLVKSSAGDTEFVHQNSQEIQRSSQDEMVSTKQQNNTSQERQTEHSPEDAACGPGHICSEQNTNDREKNHGSSPEQVVRPKVRKLISSSQVDQETGFNRHEAKQRSVQRWREALEVEESGSDDLLIKCEEYDGEHDCMFLDPPYSRVITQRETENNQMTSESGATAGRQEVDNTFWNGCGDYYQLYDKDEDSSECSDGEWSASLPHRFSGTEKDQSSSDESWETLPGKDENEPELQSDSSGPEEENQELSLQEGEQTSLEEGEIPWLQYNEVNESSSDEGNEPANEFAQPAFMLDGNNNLEDDSSVSEDLDVDWSLFDGFADGLGVAEAISYVDPQFLTYMALEERLAQAMETALAHLESLAVDVEVANPPASKESIDGLPETLVLEDHTAIGQEQCCPICCSEYIKDDIATELPCHHFFHKPCVSIWLQKSGTCPVCRRHFPPAVIEASAAPSSEPDPDAPPSNDSIAEAP	binds	binds	binds	binds	–
endogenous BBS2 (protein, UniProt Q9BXC9 1-721) MLLPVFTLKLRHKISPRMVAIGRYDGTHPCLAAATQTGKVFIHNPHTRNQHVSASRVFQSPLESDVSLLSINQAVSCLTAGVLNPELGYDALLVGTQTNLLAYDVYNNSDLFYREVADGANAIVLGTLGDISSPLAIIGGNCALQGFNHEGSDLFWTVTGDNVNSLALCDFDGDGKKELLVGSEDFDIRVFKEDEIVAEMTETEIVTSLCPMYGSRFGYALSNGTVGVYDKTSRYWRIKSKNHAMSIHAFDLNSDGVNELITGWSNGKVDARSDRTGEVIFKDNFSSAIAGVVEGDYRMDGHIQLICCSVDGEIRGYLPGTAEMRGNLMDTSAEQDLIRELSQKKQNLLLELRNYEENAKAELASPLNEADGHRGIIPANTRLHTTLSVSLGNETQTAHTELRISTSNDTIIRAVLIFAEGIFTGESHVVHPSIHNLSSSICIPIVPPKDVPVDLHLKAFVGYRSSTQFHVFESTRQLPRFSMYALTSLDPASEPISYVNFTIAERAQRVVVWLGQNFLLPEDTHIQNAPFQVCFTSLRNGGHLHIKIKLSGEITINTDDIDLAGDIIQSMASFFAIEDLQVEADFPVYFEELRKVLVKVDEYHSVHQKLSADMADHSNLIRSLLVGAEDARLMRDMKTMKSRYMELYDLNRDLLNGYKIRCNNHTELLGNLKAVNQAIQRAGRLRVGKPKNQVITACRDAIRSNNINTLFKIMRVGTASS	–	–	–	–	binds
flag-PJA2 mutant (Δ550‐570) (enzyme, UniProt O43164) MSQYTEKEPAAMDQESGKAVWPKPAGGYQTITGRRYGRRHAYVSFKPCMTRHERSLGRAGDDYEVLELDDVPKENSSGSSPLDQVDSSLPSEPIFEKSETEIPTCGSALNQTTESSQSFVAVHHSEEGRDTLGSSTNLHNHSEGEYIPGACSASSVQNGIALVHTDSYDPDGKHGEDNDHLQLSAEVVEGSRYQESLGNTVFELENREAEAYTGLSPPVPSFNCEVRDEFEELDSVPLVKSSAGDTEFVHQNSQEIQRSSQDEMVSTKQQNNTSQERQTEHSPEDAACGPGHICSEQNTNDREKNHGSSPEQVVRPKVRKLISSSQVDQETGFNRHEAKQRSVQRWREALEVEESGSDDLLIKCEEYDGEHDCMFLDPPYSRVITQRETENNQMTSESGATAGRQEVDNTFWNGCGDYYQLYDKDEDSSECSDGEWSASLPHRFSGTEKDQSSSDESWETLPGKDENEPELQSDSSGPEEENQELSLQEGEQTSLEEGEIPWLQYNEVNESSSDEGNEPANEFAQPAFMLDGNNNLEDDSSVSEDLDVDPQFLTYMALEERLAQAMETALAHLESLAVDVEVANPPASKESIDGLPETLVLEDHTAIGQEQCCPICCSEYIKDDIATELPCHHFFHKPCVSIWLQKSGTCPVCRRHFPPAVIEASAAPSSEPDPDAPPSNDSIAEAP	no binding	–	no binding	–	–
